Our source for the log2 fold change values is the supplement of paper PMC10849652.

By UniProt entry, the sequences of proteins in these tests, tags left out. Where a name states a change or a piece, a line headed by the entry shows the natural chain unless it says otherwise.
UniProt P61086: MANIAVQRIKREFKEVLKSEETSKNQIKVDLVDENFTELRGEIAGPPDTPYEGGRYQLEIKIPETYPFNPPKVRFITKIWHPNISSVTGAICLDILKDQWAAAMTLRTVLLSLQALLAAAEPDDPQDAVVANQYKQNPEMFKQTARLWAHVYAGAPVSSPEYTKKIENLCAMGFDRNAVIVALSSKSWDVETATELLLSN
UniProt Q9NNW7, whole entry, looked up: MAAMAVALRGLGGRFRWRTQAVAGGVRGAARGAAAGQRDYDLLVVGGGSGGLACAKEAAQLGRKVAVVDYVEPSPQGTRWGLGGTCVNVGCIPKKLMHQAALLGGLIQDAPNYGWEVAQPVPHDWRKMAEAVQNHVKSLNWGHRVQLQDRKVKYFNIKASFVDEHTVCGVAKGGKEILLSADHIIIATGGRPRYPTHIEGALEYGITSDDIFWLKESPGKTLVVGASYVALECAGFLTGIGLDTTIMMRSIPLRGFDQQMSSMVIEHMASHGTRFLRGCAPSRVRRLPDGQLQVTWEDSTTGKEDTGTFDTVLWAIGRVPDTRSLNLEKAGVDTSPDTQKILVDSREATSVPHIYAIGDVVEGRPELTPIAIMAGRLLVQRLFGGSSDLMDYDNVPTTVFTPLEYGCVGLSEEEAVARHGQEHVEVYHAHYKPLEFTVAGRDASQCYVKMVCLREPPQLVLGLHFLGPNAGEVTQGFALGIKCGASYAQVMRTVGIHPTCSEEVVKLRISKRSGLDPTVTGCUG
UniProt Q01081: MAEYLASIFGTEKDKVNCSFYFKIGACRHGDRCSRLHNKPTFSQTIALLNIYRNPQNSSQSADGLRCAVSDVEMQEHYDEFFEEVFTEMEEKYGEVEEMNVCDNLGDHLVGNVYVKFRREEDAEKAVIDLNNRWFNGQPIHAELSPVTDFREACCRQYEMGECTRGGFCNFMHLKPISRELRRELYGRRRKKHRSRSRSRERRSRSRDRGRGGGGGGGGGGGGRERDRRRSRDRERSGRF
UniProt Q13885, whole entry, looked up: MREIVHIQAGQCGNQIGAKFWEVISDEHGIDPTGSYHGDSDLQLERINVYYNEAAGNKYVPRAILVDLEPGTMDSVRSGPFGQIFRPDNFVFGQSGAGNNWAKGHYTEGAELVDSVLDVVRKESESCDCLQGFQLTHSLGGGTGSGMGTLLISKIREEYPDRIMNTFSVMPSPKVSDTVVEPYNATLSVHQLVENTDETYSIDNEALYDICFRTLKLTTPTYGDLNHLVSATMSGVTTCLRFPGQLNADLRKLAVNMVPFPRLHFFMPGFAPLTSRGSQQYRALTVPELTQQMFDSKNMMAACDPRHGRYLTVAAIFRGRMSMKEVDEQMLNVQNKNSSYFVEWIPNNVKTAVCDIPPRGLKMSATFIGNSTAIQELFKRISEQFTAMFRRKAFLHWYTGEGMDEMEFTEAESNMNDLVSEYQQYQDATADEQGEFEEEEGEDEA
UniProt Q9NPG3, whole entry, looked up: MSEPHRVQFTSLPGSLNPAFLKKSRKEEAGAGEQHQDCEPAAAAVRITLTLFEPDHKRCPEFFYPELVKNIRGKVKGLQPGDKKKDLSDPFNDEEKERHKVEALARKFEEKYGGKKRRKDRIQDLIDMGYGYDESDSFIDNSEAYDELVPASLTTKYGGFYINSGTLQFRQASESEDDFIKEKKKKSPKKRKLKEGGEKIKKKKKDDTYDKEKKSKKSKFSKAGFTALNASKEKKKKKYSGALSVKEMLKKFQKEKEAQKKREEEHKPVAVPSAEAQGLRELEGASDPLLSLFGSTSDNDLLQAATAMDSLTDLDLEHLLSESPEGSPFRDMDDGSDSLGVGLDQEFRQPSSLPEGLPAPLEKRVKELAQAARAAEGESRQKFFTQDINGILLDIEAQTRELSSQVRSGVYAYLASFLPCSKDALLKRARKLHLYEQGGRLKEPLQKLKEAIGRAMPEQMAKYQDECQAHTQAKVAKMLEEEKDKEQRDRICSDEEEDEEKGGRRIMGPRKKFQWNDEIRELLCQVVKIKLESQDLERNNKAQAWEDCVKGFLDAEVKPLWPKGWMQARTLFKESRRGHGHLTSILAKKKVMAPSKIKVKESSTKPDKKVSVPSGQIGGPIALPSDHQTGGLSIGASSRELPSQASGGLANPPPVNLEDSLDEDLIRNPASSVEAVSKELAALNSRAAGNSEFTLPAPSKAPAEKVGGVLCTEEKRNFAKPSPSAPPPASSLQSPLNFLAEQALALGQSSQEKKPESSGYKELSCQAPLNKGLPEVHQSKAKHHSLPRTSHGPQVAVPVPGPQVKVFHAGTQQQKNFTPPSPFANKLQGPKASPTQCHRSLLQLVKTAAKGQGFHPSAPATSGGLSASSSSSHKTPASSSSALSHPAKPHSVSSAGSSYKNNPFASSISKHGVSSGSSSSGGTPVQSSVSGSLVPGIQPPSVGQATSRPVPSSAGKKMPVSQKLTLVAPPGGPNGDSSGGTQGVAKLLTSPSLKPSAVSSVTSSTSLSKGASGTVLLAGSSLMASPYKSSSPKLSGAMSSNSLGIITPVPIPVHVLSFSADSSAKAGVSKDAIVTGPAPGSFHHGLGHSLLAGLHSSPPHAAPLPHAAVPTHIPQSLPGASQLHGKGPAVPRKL
UniProt P0DPH7, whole entry, looked up: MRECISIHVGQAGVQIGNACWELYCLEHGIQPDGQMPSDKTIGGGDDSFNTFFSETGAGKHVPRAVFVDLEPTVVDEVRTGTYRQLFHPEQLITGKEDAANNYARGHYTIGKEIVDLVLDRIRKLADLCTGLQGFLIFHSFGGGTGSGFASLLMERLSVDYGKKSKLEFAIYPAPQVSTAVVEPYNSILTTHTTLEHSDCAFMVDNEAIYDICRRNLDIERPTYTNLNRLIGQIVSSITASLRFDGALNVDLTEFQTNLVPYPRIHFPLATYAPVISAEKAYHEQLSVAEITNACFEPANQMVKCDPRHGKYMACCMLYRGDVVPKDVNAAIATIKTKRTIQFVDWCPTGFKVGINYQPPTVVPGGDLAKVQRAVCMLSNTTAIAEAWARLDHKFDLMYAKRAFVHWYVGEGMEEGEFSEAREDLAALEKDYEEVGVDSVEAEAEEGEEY
UniProt Q7Z3V4: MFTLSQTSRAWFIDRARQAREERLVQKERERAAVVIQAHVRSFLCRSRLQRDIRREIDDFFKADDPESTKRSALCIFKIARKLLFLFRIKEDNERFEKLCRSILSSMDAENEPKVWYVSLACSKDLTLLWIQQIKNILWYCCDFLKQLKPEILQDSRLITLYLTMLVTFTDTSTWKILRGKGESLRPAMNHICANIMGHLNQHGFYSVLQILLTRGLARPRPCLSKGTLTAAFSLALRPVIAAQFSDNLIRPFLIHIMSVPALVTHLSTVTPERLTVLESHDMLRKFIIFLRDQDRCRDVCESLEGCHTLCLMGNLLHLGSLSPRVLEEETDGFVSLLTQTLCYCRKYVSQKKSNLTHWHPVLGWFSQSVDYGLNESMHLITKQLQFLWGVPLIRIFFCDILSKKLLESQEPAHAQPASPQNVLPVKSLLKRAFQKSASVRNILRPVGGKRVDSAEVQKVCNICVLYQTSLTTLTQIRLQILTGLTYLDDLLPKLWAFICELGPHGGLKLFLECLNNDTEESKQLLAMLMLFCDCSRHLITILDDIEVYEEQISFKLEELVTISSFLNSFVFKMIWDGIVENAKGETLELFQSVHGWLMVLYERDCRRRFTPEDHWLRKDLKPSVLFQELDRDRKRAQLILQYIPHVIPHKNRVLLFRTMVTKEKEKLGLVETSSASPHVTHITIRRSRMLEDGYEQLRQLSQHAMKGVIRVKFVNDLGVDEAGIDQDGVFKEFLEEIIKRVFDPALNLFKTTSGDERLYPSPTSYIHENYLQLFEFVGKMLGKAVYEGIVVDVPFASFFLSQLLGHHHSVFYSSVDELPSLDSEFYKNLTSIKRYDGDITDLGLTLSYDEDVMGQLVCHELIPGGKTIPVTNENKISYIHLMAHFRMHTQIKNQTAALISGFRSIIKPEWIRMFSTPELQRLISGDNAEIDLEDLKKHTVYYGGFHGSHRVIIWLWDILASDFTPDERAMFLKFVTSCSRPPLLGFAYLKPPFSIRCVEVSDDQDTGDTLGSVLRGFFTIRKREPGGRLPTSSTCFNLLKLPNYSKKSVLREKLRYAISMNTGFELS
UniProt O94888: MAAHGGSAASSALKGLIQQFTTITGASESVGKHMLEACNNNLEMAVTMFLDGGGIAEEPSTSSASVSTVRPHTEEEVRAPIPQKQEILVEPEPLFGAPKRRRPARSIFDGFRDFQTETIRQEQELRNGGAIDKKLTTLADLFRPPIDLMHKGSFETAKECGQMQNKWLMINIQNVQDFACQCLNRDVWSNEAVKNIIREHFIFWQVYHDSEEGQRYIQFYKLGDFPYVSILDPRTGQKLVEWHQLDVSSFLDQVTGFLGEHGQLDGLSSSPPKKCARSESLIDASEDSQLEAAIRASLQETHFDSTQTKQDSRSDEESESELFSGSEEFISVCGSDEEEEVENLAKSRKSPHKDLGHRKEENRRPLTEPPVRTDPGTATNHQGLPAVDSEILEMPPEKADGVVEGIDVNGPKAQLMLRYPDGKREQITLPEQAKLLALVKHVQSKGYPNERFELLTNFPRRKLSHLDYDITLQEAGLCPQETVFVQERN
UniProt Q9GZZ9, whole entry, looked up: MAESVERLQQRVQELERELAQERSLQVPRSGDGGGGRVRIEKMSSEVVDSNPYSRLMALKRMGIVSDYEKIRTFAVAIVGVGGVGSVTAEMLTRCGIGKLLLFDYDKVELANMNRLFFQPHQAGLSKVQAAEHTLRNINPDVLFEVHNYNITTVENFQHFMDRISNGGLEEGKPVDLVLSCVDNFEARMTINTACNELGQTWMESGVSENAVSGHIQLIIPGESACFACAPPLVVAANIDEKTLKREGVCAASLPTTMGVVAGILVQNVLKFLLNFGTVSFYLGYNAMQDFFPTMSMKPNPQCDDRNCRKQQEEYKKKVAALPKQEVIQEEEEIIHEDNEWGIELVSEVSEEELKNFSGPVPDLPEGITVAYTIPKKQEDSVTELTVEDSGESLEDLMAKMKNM
UniProt Q9BZX2: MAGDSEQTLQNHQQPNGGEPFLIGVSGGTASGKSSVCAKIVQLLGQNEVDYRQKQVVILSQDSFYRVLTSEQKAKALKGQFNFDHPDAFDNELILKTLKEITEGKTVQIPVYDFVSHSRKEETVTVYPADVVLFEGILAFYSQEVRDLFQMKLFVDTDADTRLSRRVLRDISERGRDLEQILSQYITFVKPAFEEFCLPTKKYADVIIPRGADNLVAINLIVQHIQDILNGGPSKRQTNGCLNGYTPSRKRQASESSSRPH
UniProt Q05086: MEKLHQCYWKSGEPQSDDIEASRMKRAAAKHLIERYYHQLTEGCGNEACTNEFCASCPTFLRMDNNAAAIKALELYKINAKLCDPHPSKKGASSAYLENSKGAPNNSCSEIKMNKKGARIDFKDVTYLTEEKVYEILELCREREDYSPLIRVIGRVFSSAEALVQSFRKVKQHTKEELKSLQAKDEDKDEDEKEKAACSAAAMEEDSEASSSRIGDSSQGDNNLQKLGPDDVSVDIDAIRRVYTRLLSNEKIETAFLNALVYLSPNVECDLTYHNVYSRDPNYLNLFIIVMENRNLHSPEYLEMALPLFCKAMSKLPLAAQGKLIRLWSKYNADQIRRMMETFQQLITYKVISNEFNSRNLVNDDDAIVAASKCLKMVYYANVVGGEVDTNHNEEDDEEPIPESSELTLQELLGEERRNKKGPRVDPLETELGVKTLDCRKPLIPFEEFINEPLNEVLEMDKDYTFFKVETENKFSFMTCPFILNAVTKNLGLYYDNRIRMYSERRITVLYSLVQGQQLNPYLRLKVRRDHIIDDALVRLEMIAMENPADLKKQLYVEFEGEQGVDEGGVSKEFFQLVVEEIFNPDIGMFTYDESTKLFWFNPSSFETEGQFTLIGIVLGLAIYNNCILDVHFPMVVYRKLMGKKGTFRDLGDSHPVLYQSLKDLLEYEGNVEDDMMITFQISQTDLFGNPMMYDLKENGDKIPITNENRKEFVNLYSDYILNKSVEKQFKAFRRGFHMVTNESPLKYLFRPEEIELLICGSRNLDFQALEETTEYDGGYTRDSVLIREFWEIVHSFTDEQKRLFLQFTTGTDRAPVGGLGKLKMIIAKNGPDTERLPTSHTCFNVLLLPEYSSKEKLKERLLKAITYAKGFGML
UniProt Q9Y5Z9: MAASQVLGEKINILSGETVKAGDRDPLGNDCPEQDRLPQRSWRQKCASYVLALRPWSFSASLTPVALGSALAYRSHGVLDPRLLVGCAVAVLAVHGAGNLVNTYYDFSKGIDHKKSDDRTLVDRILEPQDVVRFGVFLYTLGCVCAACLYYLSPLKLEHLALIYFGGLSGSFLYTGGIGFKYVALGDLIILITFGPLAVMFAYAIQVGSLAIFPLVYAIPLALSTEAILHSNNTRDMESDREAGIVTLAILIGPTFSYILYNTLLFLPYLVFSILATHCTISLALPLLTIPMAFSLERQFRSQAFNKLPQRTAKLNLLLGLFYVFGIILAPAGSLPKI
UniProt P61088: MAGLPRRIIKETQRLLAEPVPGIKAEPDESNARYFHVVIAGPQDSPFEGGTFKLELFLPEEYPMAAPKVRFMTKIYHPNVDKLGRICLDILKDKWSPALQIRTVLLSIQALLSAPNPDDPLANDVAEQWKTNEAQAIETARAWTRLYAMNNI

This is one part of the list.

Compound in the first assay: CC[C@@H]1C(=O)N(C)c2cnc(Nc3ccc(C(=O)NC4CCN(C)CC4)cc3OC)nc2N1C1CCCC1
The assay can be described thus: log2 fold change, soluble protein after heating vs DMSO (PISA); higher = thermal stabilisation; K562 lysate, 10 uM; active = over 0.2 and 3.5 SD of the protein, either way, in both replicates (recomputed). In a few lines:
(§1)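 Dounce homogenisation of K562 pellets in PBS pH 7.4 with 1 mM MgCl2 produced a crude extract, used at 1 mg/mL protein. Exposure to 10 μM compound lasted 30 min, and aliquots were then heated for 3 min across 48°C-58°C, pooled and brought to 0.5% NP-40 at 4°C. The supernatant after 21,000xg for 90 min was quantified by TMTpro 16plex LC-MS/MS with channel sums equalised. Duplicate values are given as log-two fold change in thermal stability relative to solvent controls.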
As to TUT1 (UniProt Q9H6E5), the log2 fold change was inactive: -0.017. The same measure, in the same setting: for TUBB6 (UniProt K7ES63) the value was inactive: -0.096; for UBE2K (UniProt P61086), inactive: 0.057. On the same count and under the same terms, for TXNRD2 (UniProt Q9NNW7) the value was inactive: 0.023; for UBL4A (UniProt P11441), inactive: -0.081. Same read-out and setting: in the case of U2AF1 isoform 2 (UniProt Q01081) it was inactive: -0.06.

Compound in another assay: CC[C@@H]1C(=O)N(C)c2cnc(Nc3ccc(C(=O)N[C@H]4CC[C@H](N5CCN(CC6CC6)CC5)CC4)cc3OC)nc2N1C(C)C [volasertib]
The assay is described as above. A digest of the protocol:
as §1
Take TUBB2A (UniProt Q13885): the log2 fold change was inactive: -0.049.

As for UBE2D1 (UniProt P51668), the log2 fold change was inactive: -0.046.

Turning to TUBB4A (UniProt M0QYM7), the log2 fold change is inactive: -0.069. On the same count and under the same terms, in the case of UBN1 (UniProt Q9NPG3) it was inactive: 0.005. Same read-out and setting: for TUBA3C (UniProt P0DPH7) the value was inactive: -0.026; for UBE2G2 (UniProt P60604), inactive: 0; for UBE2I (UniProt H3BQQ9), inactive: -0.049.

On to TXNDC17 (UniProt Q9BRA2), for which the log2 fold change is inactive: 0.03. As for UBE3B (UniProt Q7Z3V4), the log2 fold change is inactive: -0.044. Still for that read-out and setting: in the case of UBXN7 (UniProt O94888) it was inactive: 0.005; in that of UBA5 (UniProt Q9GZZ9), inactive: -0.018; in that of UBE2F isoform 2 (UniProt Q969M7), inactive: -0.057. Same read-out and setting: in the case of UCK2 (UniProt Q9BZX2) it was inactive: -0.051; in that of UBE3A (UniProt Q05086), inactive: -0.017.

Regarding UBE2E3 (UniProt Q969T4), the log2 fold change is inactive: 0.016. The same measure, in the same setting: for UBIAD1 (UniProt Q9Y5Z9) the value was inactive: 0.046. For the target U2AF2 (UniProt K7ELP8), the log2 fold change is inactive: 0.086. Same read-out and setting: in the case of UBQLN1 isoform 2 (UniProt Q9UMX0) it was inactive: -0.021. In the case of UBE2N (UniProt P61088), the log2 fold change is inactive: 0.026. Same read-out and setting: for UBR4 isoform 4 (UniProt Q5T4S7) the value was inactive: -0.104. The same measure, in the same setting: in the case of UBR4 (UniProt Q5T4S7) it was inactive: -0.03; in that of UBXN2A (UniProt P68543), inactive: 0.088; in that of TUFM (UniProt P49411), inactive: -0.073.

Turning to UBE2K (UniProt D6RDM7), the log2 fold change was inactive: 0.214. Consider TUT1 (UniProt Q9H6E5), for which the log2 fold change was inactive: -0.062. On to TUBB6 (UniProt K7ES63), for which the log2 fold change was inactive: -0.064. On to UBE2K (UniProt P61086), for which the log2 fold change is inactive: 0.026. Regarding TXNRD2 (UniProt Q9NNW7), the log2 fold change was inactive: -0.005. On to UBL4A (UniProt P11441), for which the log2 fold change was inactive: -0.02. As to U2AF1 isoform 2 (UniProt Q01081), the log2 fold change was inactive: 0.01.

For TXNDC16 (UniProt Q9P2K2), the log2 fold change is inactive: -0.123. On the same count and under the same terms, in the case of UBAP2L (UniProt F8W726) it was inactive: -0.018.
